Test results published in patent US20220064301A1.
These are yes or no findings as the source states them, for the method shown. Some results given as binding are weak or reduced against the parent protein; the word gives no strength.

Tests used:
[1] = target: cynoCTLA4-Fc (cynomolgus) (UniProt G7PL88); assay: SPR (FIG. 2E, 2F)
[2] = target: cynoCTLA4-Fc (cynomolgus) (UniProt G7PL88); assay: SPR (FIG. 2E)
[3] = target: cynoCTLA4-Fc (cynomolgus) (UniProt G7PL88); assay: SPR (Biacore), cynoCTLA4-Fc, series 2-32 nM

Measured: binding

B1: Antibody 2-Fab (a Fab of Antibody 2) (Fab, V domains shown)
VH: QVQLVQSGAEVKKPGSSVKVSCKASGYTFTNYFMNWVRQAPGQGLEWMGRVDPEQGRADYAEKFKKRVTITADKSTSTAYMELSSLRSEDTAVYYCARRAMDNYGFAYWGQGTLVTVSS
VL: EIVLTQSPDFQSVTPKEKVTITCSANSALSYMYWYQQKPDQSPKLWVHGTSNLASGVPSRFSGSGSGTDFTLTINSLEAEDAATYYCHHWSNTQWTFGGGTKVEIKR
binds: all assays above
